Measured values from article PMC9127750.
These are yes or no findings as the source states them, for the method shown. In cells and extracts the contact can be indirect. Binding can be weak; no strength is given.

Chains of the proteins cited; added tags and fusions are not shown. Lines headed by an entry give the natural chain unless they say otherwise; changes in a name come on top.
UniProt Q13153: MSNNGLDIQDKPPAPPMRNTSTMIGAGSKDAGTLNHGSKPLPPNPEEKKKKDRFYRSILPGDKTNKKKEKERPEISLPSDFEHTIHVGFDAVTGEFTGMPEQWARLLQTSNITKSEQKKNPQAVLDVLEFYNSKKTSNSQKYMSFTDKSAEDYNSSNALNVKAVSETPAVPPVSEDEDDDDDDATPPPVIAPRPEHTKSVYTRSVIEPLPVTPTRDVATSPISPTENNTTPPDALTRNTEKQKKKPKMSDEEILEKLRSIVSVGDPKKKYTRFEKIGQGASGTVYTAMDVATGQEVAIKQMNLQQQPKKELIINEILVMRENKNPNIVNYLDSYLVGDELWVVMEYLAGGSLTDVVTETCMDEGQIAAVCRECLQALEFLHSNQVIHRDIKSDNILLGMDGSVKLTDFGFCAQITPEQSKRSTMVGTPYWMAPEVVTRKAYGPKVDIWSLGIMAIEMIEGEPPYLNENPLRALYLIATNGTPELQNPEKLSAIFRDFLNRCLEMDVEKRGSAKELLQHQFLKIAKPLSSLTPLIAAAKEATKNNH
UniProt Q9H4E5: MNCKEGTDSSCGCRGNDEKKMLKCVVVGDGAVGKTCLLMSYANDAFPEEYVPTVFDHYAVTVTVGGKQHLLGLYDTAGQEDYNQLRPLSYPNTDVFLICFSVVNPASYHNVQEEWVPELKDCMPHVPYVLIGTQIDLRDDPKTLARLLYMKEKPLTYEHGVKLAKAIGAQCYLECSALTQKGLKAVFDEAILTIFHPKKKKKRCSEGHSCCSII
UniProt P60953: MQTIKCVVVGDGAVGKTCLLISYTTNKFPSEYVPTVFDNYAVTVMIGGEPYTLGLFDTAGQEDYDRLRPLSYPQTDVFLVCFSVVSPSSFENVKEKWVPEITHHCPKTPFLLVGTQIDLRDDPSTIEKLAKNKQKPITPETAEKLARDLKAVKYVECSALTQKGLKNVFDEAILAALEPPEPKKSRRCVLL

Target: PAK1-p21 binding domain (PAK1-PBD)-coupled beads (UniProt Q13153)
Assay: pull-down

For RHOJ (from UniProt Q9H4E5 1-214), the binding was “binds”.

In the case of CDC42 (from UniProt P60953 1-191), the binding was “binds”.
